The values below come from paper doi:10.1101/2025.07.23.666269 (bioRxiv, 2025).

These are yes or no findings as the source states them, for the method shown. Binding calls can cover weak binding; strength is not graded here.

The experiment concerns the target T1, recombinant ɸ6 protein P1 (cystovirus ɸ6) (UniProt P11126).
T1 sequence: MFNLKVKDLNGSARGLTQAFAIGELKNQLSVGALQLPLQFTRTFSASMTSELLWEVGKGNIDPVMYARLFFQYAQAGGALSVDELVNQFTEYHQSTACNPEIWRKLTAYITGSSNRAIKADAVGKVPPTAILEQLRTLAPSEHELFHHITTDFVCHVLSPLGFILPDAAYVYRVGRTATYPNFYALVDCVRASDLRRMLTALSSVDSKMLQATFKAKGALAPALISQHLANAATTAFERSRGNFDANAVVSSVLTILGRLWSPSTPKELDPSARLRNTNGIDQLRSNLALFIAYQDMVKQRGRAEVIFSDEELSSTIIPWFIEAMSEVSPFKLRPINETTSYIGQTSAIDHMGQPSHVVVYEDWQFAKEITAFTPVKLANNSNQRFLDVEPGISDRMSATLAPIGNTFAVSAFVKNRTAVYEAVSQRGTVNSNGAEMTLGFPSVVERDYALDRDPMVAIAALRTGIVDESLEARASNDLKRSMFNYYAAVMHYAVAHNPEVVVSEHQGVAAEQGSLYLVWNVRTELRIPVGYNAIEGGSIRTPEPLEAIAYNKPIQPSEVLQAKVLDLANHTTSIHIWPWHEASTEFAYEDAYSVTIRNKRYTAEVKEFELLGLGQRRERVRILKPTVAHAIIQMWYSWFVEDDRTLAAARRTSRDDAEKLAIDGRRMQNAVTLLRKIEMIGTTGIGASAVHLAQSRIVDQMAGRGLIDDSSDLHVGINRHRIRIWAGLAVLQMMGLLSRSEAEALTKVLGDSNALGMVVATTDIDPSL
Kind of experiment: co-sedimentation.

Take “recombinant ɸ6 protein P7, full length (cystovirus ɸ6)”: the binding entry is on record as “binds”.
